In the supplement of paper PMC10849652:
Some of the results follow.

By UniProt entry, the sequences of proteins in these tests, tags left out. Where a name states a change or a piece, a line headed by the entry shows the natural chain unless it says otherwise.
UniProt O76080: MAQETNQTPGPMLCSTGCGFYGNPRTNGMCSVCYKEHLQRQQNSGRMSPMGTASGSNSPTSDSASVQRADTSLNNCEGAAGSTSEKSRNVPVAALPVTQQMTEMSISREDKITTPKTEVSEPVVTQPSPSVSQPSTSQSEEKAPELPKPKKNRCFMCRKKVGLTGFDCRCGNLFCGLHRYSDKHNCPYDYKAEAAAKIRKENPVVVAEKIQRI
UniProt P12956: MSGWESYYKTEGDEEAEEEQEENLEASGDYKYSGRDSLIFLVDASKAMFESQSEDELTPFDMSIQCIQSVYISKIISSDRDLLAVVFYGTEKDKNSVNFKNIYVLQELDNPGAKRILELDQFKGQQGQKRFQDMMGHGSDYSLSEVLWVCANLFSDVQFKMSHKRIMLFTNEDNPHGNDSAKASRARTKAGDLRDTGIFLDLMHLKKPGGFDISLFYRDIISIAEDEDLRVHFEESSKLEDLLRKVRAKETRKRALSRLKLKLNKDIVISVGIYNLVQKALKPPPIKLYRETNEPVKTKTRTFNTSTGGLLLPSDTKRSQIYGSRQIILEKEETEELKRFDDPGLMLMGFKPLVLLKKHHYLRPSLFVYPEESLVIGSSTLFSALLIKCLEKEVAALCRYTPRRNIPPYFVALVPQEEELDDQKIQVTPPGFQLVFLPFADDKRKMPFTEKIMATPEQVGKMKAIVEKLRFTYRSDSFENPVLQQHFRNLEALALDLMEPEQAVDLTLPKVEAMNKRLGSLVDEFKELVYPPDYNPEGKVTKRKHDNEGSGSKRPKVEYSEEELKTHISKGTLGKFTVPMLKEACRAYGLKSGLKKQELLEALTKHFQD
UniProt Q96DA0: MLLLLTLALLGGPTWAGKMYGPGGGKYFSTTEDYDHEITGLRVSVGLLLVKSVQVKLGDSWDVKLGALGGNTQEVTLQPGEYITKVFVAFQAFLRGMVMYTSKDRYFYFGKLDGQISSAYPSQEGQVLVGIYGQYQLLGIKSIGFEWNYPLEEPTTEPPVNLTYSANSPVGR
UniProt Q6PJT7: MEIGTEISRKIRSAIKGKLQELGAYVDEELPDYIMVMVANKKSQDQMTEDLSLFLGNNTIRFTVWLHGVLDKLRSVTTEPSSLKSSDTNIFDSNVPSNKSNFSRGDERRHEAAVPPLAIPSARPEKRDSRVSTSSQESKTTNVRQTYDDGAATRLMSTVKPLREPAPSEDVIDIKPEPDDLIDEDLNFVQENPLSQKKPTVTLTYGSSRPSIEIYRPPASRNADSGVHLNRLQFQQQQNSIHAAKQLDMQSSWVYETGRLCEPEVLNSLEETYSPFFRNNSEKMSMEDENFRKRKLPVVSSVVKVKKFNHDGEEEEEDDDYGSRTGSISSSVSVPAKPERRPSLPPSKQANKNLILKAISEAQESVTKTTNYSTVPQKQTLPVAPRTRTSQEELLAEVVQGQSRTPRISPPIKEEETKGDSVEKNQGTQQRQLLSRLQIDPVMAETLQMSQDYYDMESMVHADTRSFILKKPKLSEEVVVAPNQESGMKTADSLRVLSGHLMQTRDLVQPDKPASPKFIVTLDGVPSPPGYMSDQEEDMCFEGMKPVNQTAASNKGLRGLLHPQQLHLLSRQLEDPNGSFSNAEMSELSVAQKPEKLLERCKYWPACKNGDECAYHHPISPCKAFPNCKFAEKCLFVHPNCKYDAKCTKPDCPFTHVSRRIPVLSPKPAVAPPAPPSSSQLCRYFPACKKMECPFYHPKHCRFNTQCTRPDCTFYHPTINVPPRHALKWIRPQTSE
UniProt Q9GZM5: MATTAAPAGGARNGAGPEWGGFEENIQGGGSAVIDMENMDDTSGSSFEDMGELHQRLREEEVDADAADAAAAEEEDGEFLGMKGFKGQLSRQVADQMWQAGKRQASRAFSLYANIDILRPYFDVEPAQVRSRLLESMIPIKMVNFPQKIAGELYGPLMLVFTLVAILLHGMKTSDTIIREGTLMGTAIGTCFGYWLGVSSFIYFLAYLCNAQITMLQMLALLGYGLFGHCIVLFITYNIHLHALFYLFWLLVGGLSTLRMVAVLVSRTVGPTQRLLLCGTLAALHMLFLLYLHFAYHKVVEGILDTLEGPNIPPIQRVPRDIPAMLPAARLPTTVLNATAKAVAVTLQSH
UniProt Q6FIF0: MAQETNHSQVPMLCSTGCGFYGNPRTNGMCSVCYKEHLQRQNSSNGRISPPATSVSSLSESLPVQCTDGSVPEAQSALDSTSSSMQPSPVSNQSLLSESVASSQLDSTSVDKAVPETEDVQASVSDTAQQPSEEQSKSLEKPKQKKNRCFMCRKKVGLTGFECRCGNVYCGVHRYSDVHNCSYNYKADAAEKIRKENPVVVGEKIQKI
UniProt O95365: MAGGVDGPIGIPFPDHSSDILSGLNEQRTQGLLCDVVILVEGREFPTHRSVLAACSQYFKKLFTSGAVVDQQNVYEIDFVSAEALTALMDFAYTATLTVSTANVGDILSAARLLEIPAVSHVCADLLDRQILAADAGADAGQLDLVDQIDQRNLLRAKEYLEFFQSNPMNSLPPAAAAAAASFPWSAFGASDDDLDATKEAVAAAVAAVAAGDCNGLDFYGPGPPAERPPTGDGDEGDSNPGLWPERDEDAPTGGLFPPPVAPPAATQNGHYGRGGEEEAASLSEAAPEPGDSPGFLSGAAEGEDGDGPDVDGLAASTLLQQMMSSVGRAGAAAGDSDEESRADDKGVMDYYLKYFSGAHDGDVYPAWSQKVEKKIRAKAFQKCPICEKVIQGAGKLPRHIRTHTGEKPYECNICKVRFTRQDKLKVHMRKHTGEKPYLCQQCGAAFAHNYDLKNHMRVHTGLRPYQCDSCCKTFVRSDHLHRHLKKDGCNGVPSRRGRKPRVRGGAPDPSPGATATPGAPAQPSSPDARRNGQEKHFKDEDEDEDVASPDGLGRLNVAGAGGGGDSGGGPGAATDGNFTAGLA
UniProt O43829: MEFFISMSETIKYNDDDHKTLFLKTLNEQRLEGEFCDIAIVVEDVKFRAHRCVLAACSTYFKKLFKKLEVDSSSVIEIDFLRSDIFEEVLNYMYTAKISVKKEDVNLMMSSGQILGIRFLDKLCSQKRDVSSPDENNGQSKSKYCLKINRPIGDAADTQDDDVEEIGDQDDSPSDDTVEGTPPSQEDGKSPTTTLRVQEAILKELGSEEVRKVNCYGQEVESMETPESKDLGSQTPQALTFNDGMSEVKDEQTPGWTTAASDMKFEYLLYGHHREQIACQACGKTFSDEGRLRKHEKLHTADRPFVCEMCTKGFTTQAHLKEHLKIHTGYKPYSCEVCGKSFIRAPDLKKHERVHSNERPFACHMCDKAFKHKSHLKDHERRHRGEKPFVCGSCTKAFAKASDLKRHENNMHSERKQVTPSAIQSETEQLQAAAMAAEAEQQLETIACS
UniProt Q9NPG8: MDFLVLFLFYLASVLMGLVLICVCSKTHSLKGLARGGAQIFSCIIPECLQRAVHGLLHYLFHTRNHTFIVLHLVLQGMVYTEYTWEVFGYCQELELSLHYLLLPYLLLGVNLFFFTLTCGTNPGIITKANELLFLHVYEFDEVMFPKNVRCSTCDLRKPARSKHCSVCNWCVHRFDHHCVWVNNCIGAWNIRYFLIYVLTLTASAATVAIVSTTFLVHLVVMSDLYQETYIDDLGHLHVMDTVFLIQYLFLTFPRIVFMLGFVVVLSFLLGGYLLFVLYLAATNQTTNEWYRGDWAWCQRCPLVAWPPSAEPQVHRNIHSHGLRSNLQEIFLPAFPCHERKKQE
UniProt O60315: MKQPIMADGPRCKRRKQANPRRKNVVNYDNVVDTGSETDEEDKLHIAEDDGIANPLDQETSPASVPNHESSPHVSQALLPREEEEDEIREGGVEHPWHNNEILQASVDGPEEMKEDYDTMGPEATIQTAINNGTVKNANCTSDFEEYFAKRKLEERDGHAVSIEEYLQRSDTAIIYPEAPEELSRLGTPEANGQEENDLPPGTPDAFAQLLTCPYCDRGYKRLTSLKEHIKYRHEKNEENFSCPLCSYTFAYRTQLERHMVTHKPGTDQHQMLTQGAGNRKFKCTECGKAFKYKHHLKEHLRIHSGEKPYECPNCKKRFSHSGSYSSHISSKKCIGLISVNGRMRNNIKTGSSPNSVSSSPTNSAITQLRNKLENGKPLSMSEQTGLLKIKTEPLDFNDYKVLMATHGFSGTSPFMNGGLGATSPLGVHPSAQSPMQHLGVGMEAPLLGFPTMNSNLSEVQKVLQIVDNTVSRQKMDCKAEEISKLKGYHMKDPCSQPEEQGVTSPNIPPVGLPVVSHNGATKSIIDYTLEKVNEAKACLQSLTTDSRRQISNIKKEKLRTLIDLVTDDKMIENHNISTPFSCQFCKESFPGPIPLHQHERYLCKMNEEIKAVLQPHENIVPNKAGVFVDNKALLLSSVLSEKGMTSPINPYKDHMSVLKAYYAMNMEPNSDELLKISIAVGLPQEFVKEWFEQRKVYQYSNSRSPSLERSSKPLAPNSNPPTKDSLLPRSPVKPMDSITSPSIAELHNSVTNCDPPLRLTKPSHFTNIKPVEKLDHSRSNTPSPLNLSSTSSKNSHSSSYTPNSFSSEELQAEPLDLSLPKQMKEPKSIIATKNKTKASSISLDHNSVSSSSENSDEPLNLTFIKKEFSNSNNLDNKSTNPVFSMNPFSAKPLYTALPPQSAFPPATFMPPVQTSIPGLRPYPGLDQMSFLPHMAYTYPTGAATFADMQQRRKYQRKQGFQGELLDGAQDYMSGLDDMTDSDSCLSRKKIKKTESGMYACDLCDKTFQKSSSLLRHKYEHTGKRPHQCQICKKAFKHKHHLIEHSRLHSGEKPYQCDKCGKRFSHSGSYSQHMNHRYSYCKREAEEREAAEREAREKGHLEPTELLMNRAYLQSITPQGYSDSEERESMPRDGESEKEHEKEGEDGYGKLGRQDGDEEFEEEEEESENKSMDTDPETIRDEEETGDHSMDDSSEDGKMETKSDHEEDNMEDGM
UniProt Q9H0D6: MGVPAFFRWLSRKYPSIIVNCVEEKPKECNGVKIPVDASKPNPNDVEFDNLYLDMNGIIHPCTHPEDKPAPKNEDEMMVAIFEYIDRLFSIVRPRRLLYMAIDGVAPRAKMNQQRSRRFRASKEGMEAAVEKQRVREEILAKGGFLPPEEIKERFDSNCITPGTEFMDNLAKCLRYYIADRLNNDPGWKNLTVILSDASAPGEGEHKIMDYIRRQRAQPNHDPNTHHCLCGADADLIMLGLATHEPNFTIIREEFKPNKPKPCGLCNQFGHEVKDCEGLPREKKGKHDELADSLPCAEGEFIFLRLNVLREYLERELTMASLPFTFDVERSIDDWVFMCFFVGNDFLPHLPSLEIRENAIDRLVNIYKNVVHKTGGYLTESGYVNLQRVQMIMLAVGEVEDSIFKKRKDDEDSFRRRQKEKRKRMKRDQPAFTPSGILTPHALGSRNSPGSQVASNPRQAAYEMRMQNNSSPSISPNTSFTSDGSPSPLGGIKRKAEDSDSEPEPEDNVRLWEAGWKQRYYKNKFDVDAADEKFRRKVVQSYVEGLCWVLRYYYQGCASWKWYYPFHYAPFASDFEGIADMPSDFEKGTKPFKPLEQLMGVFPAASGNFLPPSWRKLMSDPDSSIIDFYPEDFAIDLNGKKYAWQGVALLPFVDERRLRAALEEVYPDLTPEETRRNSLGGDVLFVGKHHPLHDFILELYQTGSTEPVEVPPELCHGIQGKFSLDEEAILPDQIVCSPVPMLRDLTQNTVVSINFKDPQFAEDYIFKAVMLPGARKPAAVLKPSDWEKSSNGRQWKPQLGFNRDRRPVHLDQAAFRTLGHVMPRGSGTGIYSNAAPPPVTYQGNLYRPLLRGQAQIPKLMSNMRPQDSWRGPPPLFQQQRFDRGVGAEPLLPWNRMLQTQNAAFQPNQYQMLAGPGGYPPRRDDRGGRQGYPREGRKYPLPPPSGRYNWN
UniProt P16989, whole entry, looked up: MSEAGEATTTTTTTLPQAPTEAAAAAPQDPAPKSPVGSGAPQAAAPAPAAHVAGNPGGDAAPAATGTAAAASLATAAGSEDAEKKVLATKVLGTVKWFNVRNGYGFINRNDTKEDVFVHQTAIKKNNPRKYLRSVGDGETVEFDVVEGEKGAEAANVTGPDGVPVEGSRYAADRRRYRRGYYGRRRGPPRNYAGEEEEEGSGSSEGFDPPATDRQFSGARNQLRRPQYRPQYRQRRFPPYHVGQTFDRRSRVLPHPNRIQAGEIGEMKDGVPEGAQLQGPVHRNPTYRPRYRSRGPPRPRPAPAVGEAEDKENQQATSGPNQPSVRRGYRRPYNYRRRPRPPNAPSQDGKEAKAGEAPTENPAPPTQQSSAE
UniProt Q9NUE0: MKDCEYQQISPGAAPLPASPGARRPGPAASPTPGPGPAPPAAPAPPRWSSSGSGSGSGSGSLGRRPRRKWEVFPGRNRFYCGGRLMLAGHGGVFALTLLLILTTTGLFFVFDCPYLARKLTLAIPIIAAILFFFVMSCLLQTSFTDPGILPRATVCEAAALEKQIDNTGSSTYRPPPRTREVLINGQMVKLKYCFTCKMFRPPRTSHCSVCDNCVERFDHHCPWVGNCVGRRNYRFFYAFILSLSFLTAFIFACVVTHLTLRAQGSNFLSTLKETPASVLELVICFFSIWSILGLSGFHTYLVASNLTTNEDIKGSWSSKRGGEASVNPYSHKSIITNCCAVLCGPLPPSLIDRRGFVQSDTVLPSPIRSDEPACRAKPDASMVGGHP

Experiments:
Assay in all cases: log2 fold change, soluble protein after heating vs DMSO (PISA); higher = thermal stabilisation; K562 lysate, 10 uM; active = over 0.2 and 3.5 SD of the protein, either way, in both replicates (recomputed)
ibrutinib = compound: C=CC(=O)N1CCC[C@@H](n2nc(-c3ccc(Oc4ccccc4)cc3)c3c(N)ncnc32)C1 [ibrutinib]
Procedure, shortened: (§1)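 Soluble protein was defined as the supernatant remaining after 21,000xg for 90 min, following pooling of heated aliquots and adjustment to 0.5% NP-40 at 4°C. Before that, crude K562 extract at 1 mg/mL protein in PBS pH 7.4 with 1 mM MgCl2 was treated with 10 μM compound for 30 min and heated for 3 min across 48°C-58°C. Quantification used TMTpro 16plex LC-MS/MS with channel sums equalised, and values are log-two fold changes in thermal stability relative to solvent controls from duplicates.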

[1] = compound: CC(=O)c1cnc2ccc(-c3cc(Cl)c(O)c(Cl)c3)nc2c1N[C@H]1CC[C@H](CN(C)C)CC1
Procedure, shortened: as §1

ralimetinib = compound: CC(C)(C)Cn1c(N)nc2ccc(-c3[nH]c(C(C)(C)C)nc3-c3ccc(F)cc3)nc21 [ralimetinib]
Procedure, shortened: as §1

[2] = compound: CC(C)(O)CC(=O)NCCn1ccc2ncnc(Nc3ccc(Oc4cccc(C(F)(F)F)c4)c(Cl)c3)c21
Procedure, shortened: as §1

[3] = compound: CC(C)C1=C2N=C(C=C(N2N=C1)NCC3=CC=CC=C3)NCCCCCCN
Procedure, shortened: as §1

[4] = compound: CC1=C(C(CC(=O)N1)C2=CC=C(C=C2)C(F)(F)F)C(=O)NC3=C(C=C4C(=C3)C=NN4)F
Procedure, shortened: as §1

[5] = compound: CC1=C(C2=C(C=C1)C(=O)C3=CC=CC=C3N2CCCN)C
Procedure, shortened: as §1

[6] = compound: CC1=C(C=C(C=C1)NC(=O)C2=CC(=CC=C2)C(C)(C)C#N)NC3=CC4=C(C=C3)N=CN(C4=O)C
Procedure, shortened: as §1

[7] = compound: CC1=C(C=C(C=C1)NC(=O)C2=CC(=CC=C2)N(C)C)NC(=O)C3=CC=C(C=C3)O
Procedure, shortened: as §1

[8] = compound: CC1=CC=C(C=C1)SC2=C3C=C(SC3=CN=C2)C(=O)N
Procedure, shortened: as §1

vemurafenib = compound: CCCS(=O)(=O)Nc1ccc(F)c(C(=O)c2c[nH]c3ncc(-c4ccc(Cl)cc4)cc23)c1F [vemurafenib]
Procedure, shortened: as §1

[9] = compound: CCCS(=O)(=O)Nc1ccc(F)c(C(=O)c2c[nH]c3ncc(Cl)cc23)c1F
Procedure, shortened: as §1

barasertib = compound: CCN(CCCOc1ccc2c(Nc3cc(CC(=O)Nc4cccc(F)c4)[nH]n3)ncnc2c1)CCOP(=O)(O)O [barasertib]
Procedure, shortened: as §1

volasertib = compound: CC[C@@H]1C(=O)N(C)c2cnc(Nc3ccc(C(=O)N[C@H]4CC[C@H](N5CCN(CC6CC6)CC5)CC4)cc3OC)nc2N1C(C)C [volasertib]
Procedure, shortened: as §1

[10] = compound: CCn1c(C(=O)N(C2CC2)C2CC2)cc2c3c(ncn3C)c(Nc3cc(C)n(C)n3)nc21
Procedure, shortened: as §1

[11] = compound: CCn1cc(-c2ccnc3[nH]c(-c4cccc(CN(C)C)c4)cc23)c(-c2ccc(NC(=O)N(C)C)cc2)n1
Procedure, shortened: as §1

[12] = compound: CN1CCC(CNc2ccc3ncc(-c4cccc(OC(F)(F)F)c4)n3n2)CC1
Procedure, shortened: as §1

saracatinib = compound: CN1CCN(CCOc2cc(OC3CCOCC3)c3c(Nc4c(Cl)ccc5c4OCO5)ncnc3c2)CC1 [saracatinib]
Procedure, shortened: as §1

sotrastaurin = compound: CN1CCN(c2nc(C3=C(c4c[nH]c5ccccc45)C(=O)NC3=O)c3ccccc3n2)CC1 [sotrastaurin]
Procedure, shortened: as §1

[13] = compound: CC[C@@H]1C(=O)N(C)c2cnc(Nc3ccc(C(=O)NC4CCN(C)CC4)cc3OC)nc2N1C1CCCC1
Procedure, shortened: as §1

Row | Target | log2 fold change (ibrutinib) | log2 fold change [1] | log2 fold change (ralimetinib) | log2 fold change [2] | log2 fold change [3] | log2 fold change [4] | log2 fold change [5] | log2 fold change [6] | log2 fold change [7] | log2 fold change [8] | log2 fold change (vemurafenib) | log2 fold change [9] | log2 fold change (barasertib) | log2 fold change (volasertib) | log2 fold change [10] | log2 fold change [11] | log2 fold change [12] | log2 fold change (saracatinib) | log2 fold change (sotrastaurin) | log2 fold change [13]
1 | ZFAND5 (UniProt O76080) | inactive: -0.008 | inactive: -0.132 | inactive: -0.04 | inactive: 0 | inactive: -0.151 | inactive: 0.031 | inactive: -0.058 | inactive: 0.142 | inactive: 0.029 | inactive: 0.032 | inactive: -0.02 | inactive: -0.128 | inactive: -0.005 | inactive: -0.055 | inactive: 0.047 | inactive: -0.037 | inactive: 0.048 | inactive: -0.005 | inactive: -0.154 | –
2 | YEATS4 (UniProt O95619) | inactive: 0.02 | inactive: 0.016 | inactive: 0.003 | inactive: 0.009 | inactive: 0.001 | inactive: 0.01 | inactive: -0.004 | inactive: 0.041 | inactive: -0.035 | inactive: -0.039 | inactive: -0.032 | inactive: 0.003 | inactive: 0.05 | inactive: -0.028 | inactive: 0.014 | active: 0.746 | inactive: 0 | inactive: 0.031 | inactive: 0.022 | inactive: 0.045
3 | XRCC6 (UniProt P12956) | inactive: -0.032 | inactive: -0.011 | inactive: -0.006 | inactive: -0.029 | inactive: -0.007 | inactive: 0.001 | inactive: 0.041 | inactive: 0.007 | inactive: 0.002 | inactive: -0.006 | inactive: -0.015 | inactive: 0.001 | inactive: -0.001 | inactive: -0.01 | inactive: -0.004 | inactive: 0.011 | inactive: -0.046 | inactive: -0.01 | inactive: 0.004 | inactive: -0.013
4 | ZG16B (UniProt Q96DA0) | inactive: -0.259 | inactive: 0.476 | inactive: -0.384 | inactive: 0.605 | inactive: 0.126 | inactive: 2.23 | – | inactive: 0.118 | inactive: -0.071 | inactive: -0.217 | – | inactive: -0.313 | inactive: -0.263 | inactive: -0.282 | inactive: 0.372 | inactive: 0.539 | inactive: -0.322 | – | inactive: -0.029 | inactive: 0.088
5 | ZADH2 (UniProt Q8N4Q0) | inactive: 0.05 | inactive: -0.002 | inactive: 0.014 | inactive: -0.027 | inactive: -0.046 | inactive: -0.013 | inactive: -0.088 | inactive: -0.054 | inactive: -0.01 | inactive: -0.125 | inactive: 0.06 | inactive: -0.008 | inactive: 0.017 | inactive: 0.311 | inactive: -0.05 | inactive: -0.076 | inactive: 0.045 | inactive: 0.035 | inactive: -0.021 | –
6 | ZC3H14 (UniProt Q6PJT7) | inactive: -0.011 | inactive: -0.019 | inactive: -0.005 | inactive: -0.036 | inactive: 0.002 | inactive: 0.02 | inactive: 0.019 | inactive: 0.01 | inactive: 0.025 | inactive: -0.023 | inactive: 0.051 | inactive: 0.063 | inactive: 0.059 | inactive: 0.004 | inactive: -0.013 | inactive: 0 | inactive: 0.015 | inactive: 0.005 | inactive: 0.006 | inactive: 0.006
7 | YIPF3 (UniProt Q9GZM5) | inactive: -0.005 | inactive: -0.029 | inactive: 0.008 | inactive: -0.024 | inactive: -0.019 | inactive: 0.033 | inactive: -0.023 | inactive: -0.033 | inactive: 0.041 | inactive: 0.001 | inactive: -0.019 | inactive: 0 | inactive: 0.142 | inactive: 0.036 | inactive: 0.014 | inactive: -0.096 | inactive: 0 | inactive: -0.035 | inactive: -0.015 | inactive: -0.026
8 | ZFHX4 isoform 5 (UniProt Q86UP3) | inactive: 0.191 | inactive: 0.008 | inactive: -0.12 | inactive: -0.347 | inactive: 0.107 | inactive: 0.062 | – | inactive: -0.179 | inactive: 0.097 | inactive: -0.073 | – | inactive: 0.157 | inactive: 0.084 | inactive: 0.143 | inactive: 0.118 | – | – | – | inactive: -0.009 | –
9 | ZFAND6 (UniProt Q6FIF0) | inactive: 0.049 | inactive: -0.015 | inactive: 0.017 | inactive: -0.095 | inactive: -0.016 | inactive: -0.016 | inactive: 0.014 | inactive: 0.1 | inactive: -0.054 | inactive: -0.023 | inactive: -0.032 | inactive: 0.006 | inactive: 0.04 | inactive: 0.015 | inactive: 0.092 | inactive: 0.015 | inactive: 0 | inactive: -0.016 | inactive: -0.097 | inactive: 0.049
10 | ZBTB7A (UniProt O95365) | inactive: -0.03 | inactive: -0.012 | inactive: -0.024 | inactive: -0.013 | inactive: -0.078 | – | inactive: -0.16 | inactive: 0.093 | inactive: 0.024 | inactive: 0.067 | inactive: 0.104 | inactive: 0.138 | inactive: 0.004 | inactive: 0.044 | inactive: 0.055 | inactive: -0.068 | inactive: 0.02 | inactive: -0.027 | inactive: -0.106 | inactive: 0.107
11 | ZBTB14 (UniProt O43829) | inactive: 0.004 | inactive: -0.093 | inactive: -0.015 | inactive: -0.116 | inactive: 0.045 | inactive: 0.028 | inactive: -0.007 | inactive: 0.192 | inactive: 0.008 | inactive: -0.055 | – | inactive: 0.084 | inactive: -0.041 | inactive: 0.064 | inactive: -0.038 | inactive: -0.131 | inactive: 0.056 | inactive: 0.057 | inactive: -0.131 | –
12 | ZDHHC4 (UniProt Q9NPG8) | inactive: 0.062 | inactive: 0.082 | inactive: -0.059 | inactive: -0.088 | inactive: 0.249 | inactive: -0.024 | inactive: -0.101 | inactive: -0.075 | inactive: 0.099 | inactive: -0.236 | – | inactive: -0.106 | inactive: -0.047 | inactive: -0.074 | inactive: 0.101 | inactive: 0.113 | inactive: 0.013 | inactive: 0.183 | inactive: -0.002 | –
13 | ZEB2 (UniProt O60315) | inactive: -0.134 | inactive: 0.137 | inactive: -0.009 | inactive: -0.027 | inactive: 0.036 | inactive: -0.018 | inactive: 0.058 | inactive: -0.032 | inactive: 0.022 | inactive: 0.05 | inactive: -0.077 | inactive: 0.15 | inactive: 0.277 | inactive: -0.027 | inactive: 0.055 | – | – | inactive: -0.052 | inactive: 0.018 | inactive: 0.013
14 | XRN2 (UniProt Q9H0D6) | inactive: 0.041 | inactive: -0.016 | inactive: 0.012 | inactive: 0.006 | inactive: -0.014 | inactive: -0.018 | inactive: -0.031 | inactive: -0.011 | inactive: 0.018 | inactive: 0.008 | inactive: -0.078 | inactive: -0.009 | inactive: -0.054 | inactive: -0.005 | inactive: 0.02 | inactive: 0.037 | inactive: 0.013 | inactive: -0.012 | inactive: -0.018 | inactive: 0.017
15 | YBX3 (UniProt P16989) | inactive: -0.044 | inactive: -0.005 | inactive: -0.001 | inactive: -0.035 | inactive: 0.005 | inactive: -0.004 | inactive: -0.046 | inactive: 0.024 | inactive: 0.007 | inactive: -0.021 | inactive: 0.044 | inactive: -0.011 | inactive: -0.045 | inactive: -0.002 | inactive: -0.026 | inactive: 0.045 | inactive: 0.034 | inactive: -0.008 | inactive: -0.005 | inactive: 0.079
16 | ZDHHC18 (UniProt Q9NUE0) | inactive: -0.103 | inactive: 0.057 | inactive: 0.093 | inactive: -0.017 | inactive: -0.137 | inactive: 0.019 | inactive: 0.209 | inactive: -0.022 | inactive: 0.073 | inactive: -0.01 | inactive: 0.043 | inactive: 0.026 | inactive: 0.016 | inactive: -0.052 | inactive: -0.068 | inactive: -0.138 | inactive: 0.085 | inactive: 0.036 | inactive: 0.04 | inactive: -0.019

Part of the list above, limited to log2 fold change (volasertib):
Row	Target	log2 fold change (volasertib)
11	ZBTB14 (UniProt O43829)	inactive: 0.064
12	ZDHHC4 (UniProt Q9NPG8)	inactive: -0.074
